{"source": "PubChem BioAssay AID1671195 (Yale University, 2021)", "test": "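Knockdowns that increase or decrease uptake of fluorescent LDL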 (primary screen)", "system": "human Huh7 hepatoma cells", "reagent": "siRNA pool against human genes, 18 nM", "duration": "about 2 to 2.5 days of knockdown, then 8 h LDL uptake", "challenge": "DiI-labelled LDL at 30 µg/ml for 8 h, in lipoprotein-deficient serum medium", "detection": "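Fluorescent LDL signal imaged in cells, scaled to the plate median, robust z-score for each replicate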", "direction": "robust z-score: higher = more LDL uptake after knockdown", "call rule": "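Active when two or more replicates show a robust z-score above 2 or below -2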", "note": "The deposit covers about 22,000 reagents; below is a random part of them. In the full data, about 1,510 (6.9%) are marked active. 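Active includes knockdowns raising or lowering LDL uptake; positive z-scores mean more uptake, negative mean less.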 No sequences are given here."}
{"target gene":"LINC00052 (long independently transcribed non-coding RNA 52)","robust z-score, replicate 1":-1.39,"robust z-score, replicate 2":-0.712,"robust z-score, replicate 3":-0.891,"outcome":"inactive"}
{"target gene":"UPF3A (UPF3A regulator of nonsense mediated mRNA decay)","robust z-score, replicate 1":1.23,"robust z-score, replicate 2":0.566,"robust z-score, replicate 3":0.589,"outcome":"inactive"}
{"target gene":"ENPP4 (ectonucleotide pyrophosphatase/phosphodiesterase 4)","robust z-score, replicate 1":-1.03,"robust z-score, replicate 2":-0.463,"robust z-score, replicate 3":-0.862,"outcome":"inactive"}
{"target gene":"MAP1A (microtubule associated protein 1A)","robust z-score, replicate 1":-0.121,"robust z-score, replicate 2":-0.702,"robust z-score, replicate 3":-1.29,"outcome":"inactive"}
{"target gene":"FYB2 (FYN binding protein 2)","robust z-score, replicate 1":-0.412,"robust z-score, replicate 2":0.855,"robust z-score, replicate 3":0.576,"outcome":"inactive"}
{"target gene":"ARRB1 (arrestin beta 1)","robust z-score, replicate 1":-0.941,"robust z-score, replicate 2":-0.779,"robust z-score, replicate 3":-1.05,"outcome":"inactive"}
{"target gene":"OR4X2 (olfactory receptor family 4 subfamily X member 2)","robust z-score, replicate 1":-0.187,"robust z-score, replicate 2":0.124,"robust z-score, replicate 3":0.877,"outcome":"inactive"}
{"target gene":"RPL4 (ribosomal protein L4)","robust z-score, replicate 1":-0.746,"robust z-score, replicate 2":0.00224,"robust z-score, replicate 3":-0.948,"outcome":"inactive"}
{"target gene":"LOC400943 (retired record)","robust z-score, replicate 1":1.85,"robust z-score, replicate 2":1.67,"robust z-score, replicate 3":1.67,"outcome":"inactive"}
{"target gene":"VN1R10P (vomeronasal 1 receptor 10, pseudogene)","robust z-score, replicate 1":0.197,"robust z-score, replicate 2":-0.0857,"robust z-score, replicate 3":-0.166,"outcome":"inactive"}
{"target gene":"ARHGAP19 (Rho GTPase activating protein 19)","robust z-score, replicate 1":1.43,"robust z-score, replicate 2":1.19,"robust z-score, replicate 3":-0.747,"outcome":"inactive"}
{"target gene":"ORMDL3 (ORMDL sphingolipid biosynthesis regulator 3)","robust z-score, replicate 1":0.313,"robust z-score, replicate 2":0.685,"robust z-score, replicate 3":1.02,"outcome":"inactive"}
{"target gene":"ANKRD22 (ankyrin repeat domain 22)","robust z-score, replicate 1":1.02,"robust z-score, replicate 2":1.32,"robust z-score, replicate 3":0.583,"outcome":"inactive"}
{"target gene":"PER2 (period circadian regulator 2)","robust z-score, replicate 1":-0.708,"robust z-score, replicate 2":-0.153,"robust z-score, replicate 3":-0.205,"outcome":"inactive"}
{"target gene":"ANKRD54 (ankyrin repeat domain 54)","robust z-score, replicate 1":-1.86,"robust z-score, replicate 2":-1.8,"robust z-score, replicate 3":-0.876,"outcome":"inactive"}
{"target gene":"FSCB (fibrous sheath CABYR binding protein)","robust z-score, replicate 1":-1.02,"robust z-score, replicate 2":-0.828,"robust z-score, replicate 3":-0.588,"outcome":"inactive"}

In a second layout: 2 of the entries above.
UPF3A (UPF3A regulator of nonsense mediated mRNA decay)
- robust z-score, replicate 1: 1.23
- robust z-score, replicate 2: 0.566
- robust z-score, replicate 3: 0.589
- outcome: inactive

ENPP4 (ectonucleotide pyrophosphatase/phosphodiesterase 4)
- robust z-score, replicate 1: -1.03
- robust z-score, replicate 2: -0.463
- robust z-score, replicate 3: -0.862
- outcome: inactive
